Values quoted from earlier work as cited in patent US20130303496A1, “Method Of Treating Vascular Lesions” (Abbott Cardiovascular Systems Inc., priority 2012, published 2013).
For at least one compound, name, drawing or mass did not settle the structure.

System: proliferation
Conditions: cell culture, relative to zotarolimus; cited from earlier work

CC(=O)OCC(=O)[C@@]1(O)[C@H](C)C[C@H]2[C@@H]3CCC4=CC(=O)C=C[C@]4(C)[C@@]3(F)[C@@H](O)C[C@@]21C [dexamethasone acetate]
potency for the control of proliferation: lower potency drug than zotarolimus
